Measured values: the supplement of paper PMC12823440, “Inhibitors supercharge kinase turnover through native proteolytic circuits” (Nature, 2025)
This is one part of the list. The calls rarely recur for the same compound in another form.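 In K562 cells expressing nanoluciferase-fused kinases, luminescence was recorded at 4 h intervals between 2 and 18 h, normalized as percent of control with DMSO at 100% and a positive control at 0%. A significant (2 sigma) signal drop marks a time point as decreased. The authors' rule for a hit is not shown and takes in more than the number of time points.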

The molecules below were run against EGFR_L718V (UniProt P00533) (assay: kinase-Nluc reporter destabilization hit call (1 = scored as downregulated) (binary); higher = compound decreases kinase abundance). Details: 10 µM; K562; 2-18 h.

kinase-Nluc reporter destabilization hit call, inactive:
C=CC(=O)N1CCC([C@@H]2CCNc3c(C(N)=O)c(-c4ccc(Oc5ccccc5)cc4)nn32)CC1 [Zanubrutinib] 0
CCn1c(=O)c(-c2cc(NC(=O)Nc3ccccc3)c(F)cc2Br)cc2cnc(NC)cc21 [Ripretinib] 0
COc1cc(N2CCN(C)CC2)ccc1Nc1nccc(-c2cn(C)c3cnccc23)n1 0
Fc1ccc(-c2nc(-c3ccc4ccccc4c3F)[nH]c2-c2ccncc2)cc1 0
C=CC(=O)N(C)CCOc1c(N)ncnc1-c1cc(F)cc(NC(=O)c2ccc(C3CC3)cc2F)c1C [Remibrutinib] 0
NCCNc1ncc(C(N)=O)c(Nc2cccc(C(F)(F)F)c2)n1 [Syk Inhibitor II] 0
C[C@@H]1O[C@@H](Oc2c(-c3ccc(O)c(O)c3)oc3cc(O)cc(O)c3c2=O)[C@H](O)[C@H](O)[C@H]1O [Quercitrin] 0
CCCOc1ccc(C=C2SC(=O)NC2=O)cc1 0
Cc1cc2c(F)c(Oc3ncnn4cc(OC[C@@H](C)O)c(C)c34)ccc2[nH]1 [Brivanib] 0
CC(C)[C@@](C)(O)[C@@H]1CN(c2nc(-c3[nH]nc4ncccc34)c(F)cc2Cl)CCN1 0
CCCCCCCCCCCCc1ccc(S(=O)(=O)Nc2nncs2)cc1 0
CC#CC(=O)N1CCC[C@H]1c1nc(-c2ccc(C(=O)Nc3ccccn3)cc2)c2c(N)nccn12 [Acalabrutinib] 0

A draw from above in order of count of non-hydrogen atoms, ascending:
kinase-Nluc reporter destabilization hit call, inactive:
Fc1ccc(-c2nc(-c3ccc4ccccc4c3F)[nH]c2-c2ccncc2)cc1 0
C[C@@H]1O[C@@H](Oc2c(-c3ccc(O)c(O)c3)oc3cc(O)cc(O)c3c2=O)[C@H](O)[C@H](O)[C@H]1O [Quercitrin] 0
C=CC(=O)N1CCC([C@@H]2CCNc3c(C(N)=O)c(-c4ccc(Oc5ccccc5)cc4)nn32)CC1 [Zanubrutinib] 0
